According to BigSolDB 2.1:

COc1ccc2cc([C@H](C)C(=O)O)ccc2c1
Settings | solubility (mole fraction)
in 1,4-dioxane, 304.65 K | 0.116
in 1,4-dioxane, 311.05 K | 0.13
in 1,4-dioxane, 312.15 K | 0.134
in 1,4-dioxane, 316.85 K | 0.145
in 1,4-dioxane, 319.95 K | 0.155
in 1,4-dioxane, 322.85 K | 0.161
in cyclopentyl methyl ether, 310.65 K | 0.037
in cyclopentyl methyl ether, 314.85 K | 0.042
in cyclopentyl methyl ether, 318.35 K | 0.047
in cyclopentyl methyl ether, 327.35 K | 0.061
in cyclopentyl methyl ether, 333.55 K | 0.075
in toluene, 307.85 K | 0.006
in toluene, 315.85 K | 0.008
in toluene, 319.85 K | 0.01
in toluene, 323.15 K | 0.012
in toluene, 332.65 K | 0.019

COc1ccc2cc(C(C)C(=O)O)ccc2c1 (racemic)
Settings | solubility (mole fraction)
in 1,4-dioxane, 312.65 K | 0.105
in 1,4-dioxane, 316.45 K | 0.116
in 1,4-dioxane, 318.75 K | 0.122
in 1,4-dioxane, 321.05 K | 0.128
in 1,4-dioxane, 322.95 K | 0.132
in cyclopentyl methyl ether, 307.35 K | 0.025
in cyclopentyl methyl ether, 316.05 K | 0.031
in cyclopentyl methyl ether, 321.65 K | 0.036
in cyclopentyl methyl ether, 324.55 K | 0.04
in cyclopentyl methyl ether, 329.75 K | 0.047
in toluene, 312.15 K | 0.004
in toluene, 319.95 K | 0.006
in toluene, 321.45 K | 0.006
in toluene, 325.85 K | 0.008
in toluene, 326.15 K | 0.009
in toluene, 327.95 K | 0.01
in toluene, 332.45 K | 0.012
in toluene, 334.55 K | 0.013
